From publication PMC7957392, “Yeast translation elongation factor eEF3 promotes late stages of tRNA translocation” (The EMBO Journal, 2021)
These are yes or no findings as the source states them, for the method shown. Some entries that bind do so weakly or less than the wild type. Sequences can lack the tags named with a protein.

Sequences of proteins named here, by UniProt entry; tags and fusion partners are left off.
UniProt P0CX43: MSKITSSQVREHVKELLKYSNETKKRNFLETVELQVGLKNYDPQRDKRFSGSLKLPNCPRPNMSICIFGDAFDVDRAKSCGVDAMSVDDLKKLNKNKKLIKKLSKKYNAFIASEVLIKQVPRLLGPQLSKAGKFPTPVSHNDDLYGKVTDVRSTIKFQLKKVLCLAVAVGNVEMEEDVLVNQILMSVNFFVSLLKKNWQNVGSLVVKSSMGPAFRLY

B1: ribosomal protein uS13 (40S subunit head) (protein, UniProt P0CX55 1-146)
chain: MSLVVQEQGSFQHILRLLNTNVDGNIKIVYALTTIKGVGRRYSNLVCKKADVDLHKRAGELTQEELERIVQIMQNPTHYKIPAWFLNRQNDITDGKDYHTLANNVESKLRDDLERLKKIRAHRGIRHFWGLRVRGQHTKTTGRRRA
B2: ribosomal protein uL18 (60S subunit) (protein, UniProt P26321 1-297)
chain: MAFQKDAKSSAYSSRFQTPFRRRREGKTDYYQRKRLVTQHKAKYNTPKYRLVVRFTNKDIICQIISSTITGDVVLAAAYSHELPRYGITHGLTNWAAAYATGLLIARRTLQKLGLDETYKGVEEVEGEYELTEAVEDGPRPFKVFLDIGLQRTTTGARVFGALKGASDGGLYVPHSENRFPGWDFETEEIDPELLRSYIFGGHVSQYMEELADDDEERFSELFKGYLADDIDADSLEDIYTSAHEAIRADPAFKPTEKKFTKEQYAAESKKYRQTKLSKEERAARVAAKIAALAGQQ

Assays:
[1] = target: T1, eEF3 (yeast translation elongation factor 3), C-terminally TAP-tagged (S. cerevisiae) (UniProt P16521); assay: cryo-EM structure; same pull-out and cross-linked sample; non-rotated POST-2 subclass (P/P- and E/E-tRNA, L1 stalk 'int'), 3.9 Å
T1 sequence: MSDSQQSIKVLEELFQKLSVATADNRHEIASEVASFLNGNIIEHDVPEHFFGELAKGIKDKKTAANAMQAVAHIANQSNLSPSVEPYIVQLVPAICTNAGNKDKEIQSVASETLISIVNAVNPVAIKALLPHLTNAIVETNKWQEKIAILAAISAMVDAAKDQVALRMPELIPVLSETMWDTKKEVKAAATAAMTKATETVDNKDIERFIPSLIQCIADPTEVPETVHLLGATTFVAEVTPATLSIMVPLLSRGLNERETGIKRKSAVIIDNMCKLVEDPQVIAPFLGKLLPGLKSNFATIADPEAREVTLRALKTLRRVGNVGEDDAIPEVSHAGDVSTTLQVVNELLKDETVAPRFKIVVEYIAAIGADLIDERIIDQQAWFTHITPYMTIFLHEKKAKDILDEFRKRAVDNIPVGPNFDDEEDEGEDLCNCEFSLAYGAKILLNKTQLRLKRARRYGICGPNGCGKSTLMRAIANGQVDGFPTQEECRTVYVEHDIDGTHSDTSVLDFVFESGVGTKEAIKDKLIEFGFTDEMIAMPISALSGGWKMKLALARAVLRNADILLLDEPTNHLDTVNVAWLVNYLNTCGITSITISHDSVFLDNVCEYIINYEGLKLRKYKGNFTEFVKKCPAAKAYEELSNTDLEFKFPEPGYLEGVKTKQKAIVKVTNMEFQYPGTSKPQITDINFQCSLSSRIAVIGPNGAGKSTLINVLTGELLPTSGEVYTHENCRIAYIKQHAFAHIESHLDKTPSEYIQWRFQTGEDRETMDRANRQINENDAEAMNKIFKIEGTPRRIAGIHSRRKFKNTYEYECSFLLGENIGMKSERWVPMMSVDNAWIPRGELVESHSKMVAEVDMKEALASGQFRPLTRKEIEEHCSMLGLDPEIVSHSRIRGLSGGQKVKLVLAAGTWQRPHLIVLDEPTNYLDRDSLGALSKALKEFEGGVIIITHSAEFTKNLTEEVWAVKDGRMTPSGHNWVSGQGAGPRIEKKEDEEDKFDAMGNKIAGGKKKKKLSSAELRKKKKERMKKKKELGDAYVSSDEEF

[2] = target: T1, eEF3 (yeast translation elongation factor 3), C-terminally TAP-tagged (S. cerevisiae); assay: cryo-EM structure; native eEF3-80S complex from the eEF3-TAP pull-out, eluted with TEV protease in buffer 30 with 1 mM ADPNP, cross-linked with 0.02% glutaraldehyde; group I particles sorted with a mask on eEF3, 3.3 Å, multi-body refinement

Molecule	binding [1]	binding [2]
ribosomal protein uL1 (L1 stalk of the 60S subunit) (from UniProt P0CX43 1-217)	binds	–
B1	–	binds
B2	–	binds
